Reference: PubChem BioAssay AID2685 (National Center for Advancing Translational Sciences (NCATS), 2010)
The list shows a part of the results. Further columns of the screen follow, without active or inactive calls. The list favours compounds with an active or inconclusive main result. The note in brackets gives the kind of curve behind each potency; many fits are weak.

Assay: qHTS Assay for Lipid Storage Modulators in Drosophila S3 Cells;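 on cell number change: cells counted by Cell Tracker Red CMTPX staining in the red channel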
Conditions: BODIPY lipid droplet fluorescence, 18-24 h; for cell number change: measured here: cell count max response, cells fed with added oleic acid
Summary of the method: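 Drosophila S3 cells got compounds at several concentrations plus oleic acid (400 uM solution). Laser-scanning cytometry with 488 nm excitation read lipid droplets at 500-530 nm and cells at 575-640 nm. Percent activity was relative to 20 uM Triacsin C.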

[1] = measured here: lipid fluorescence (Fed channel) AC50, cells fed with added oleic acid
[2] = measured here: cell number channel AC50, cells fed with added oleic acid

Row | SMILES | cell number change [%] | AC50 [1] | AC50 [2]
1 | NCc1ccc(S(N)(=O)=O)cc1 | -5.57 | 0.82 µM [falling, full curve, poor fit] | –
2 | CCn1c(O)c(N=NC(=O)CNC(=O)/C=C/c2ccccc2)c2ccccc21 | -25.4 | 2.59 µM [falling, full curve, poor fit] | 1.46 µM [falling, full curve, poor fit]
3 | CN(C(=O)NC1CCCCC1)c1ccccc1 | -47.4 | – | 29.1 µM [falling, single point]
4 | COc1ccc(S(=O)(=O)NCc2ccncc2)cc1NC(=O)c1ccccc1 | -27.9 | – | 2.06 µM [falling, full curve, poor fit]
5 | CC(=O)Nc1ccc(N/C=C/C(=O)c2ccccc2)cc1 | 3.05 | – | –
6 | O=C(C1=C[C@@H](c2csc3ccccc23)C[C@@H](OCc2ccc(CO)cc2)O1)N1CCN(Cc2ccc3c(c2)OCO3)CC1 | -27.6 | 16.4 µM [falling, partial curve] | –
7 | CSc1c2c(nc3ncnn13)CCC2 | – | – | 0.00517 µM [falling, full curve, poor fit]
8 | Cc1cc(S(=O)(=O)N2CCN(c3ccccn3)CC2)ccc1F | -9.82 | – | –
9 | COc1ccc(C(=O)NCc2ccc(C(=O)NCC(OC)OC)cc2)cc1OC | – | 0.58 µM [rising, full curve] | –
10 | COc1ccc(C=C2c3ccccc3C(=O)c3ccccc32)c(OC)c1 | -17.8 | – | –
11 | CCCCC(=O)Nc1cccc(C(C)O)c1 (centres undefined) | -16.8 | 0.058 µM [falling, full curve, poor fit] | –
12 | O=C(c1ccc2c(=O)n(Cc3ccc(Cl)cc3)c(=S)[nH]c2c1)N1CCCC1 | 13.7 | 0.58 µM [rising, single point] | –
13 | CN(N)c1nc2ccccc2nc1C(F)(F)F | -10.3 | – | 6.51 µM [falling, single point]
14 | CC(C)(C)c1ccc(NC(=S)NCc2cccs2)cc1 | -76.7 | – | 5.17 µM [falling, partial curve, poor fit]
15 | O=S(=O)(Nc1ncccn1)c1ccc(NC(=S)NCc2cccnc2)cc1 | 7.31 | 0.58 µM [falling, single point] | 0.411 µM [falling, single point]
16 | O=C(COc1ccccc1)Nc1ccc(S(=O)(=O)Nc2ncccn2)cc1 | -35.4 | 0.58 µM [falling, full curve] | 0.731 µM [falling, partial curve, poor fit]
17 | Cc1ccccc1CSCC(=O)c1c(N)n(C)c(=O)n(C)c1=O | 151 | 6.51 µM [rising, partial curve] | 8.2 µM [rising, partial curve]
18 | CCN(CC)S(=O)(=O)c1ccc(N2CCOCC2)c(NC(=O)C2CC2)c1 | 22.1 | – | –
19 | O=C(CCC1CCCC1)N1CCN(C(=O)c2ccco2)CC1 | 18 | 6.51 µM [rising, partial curve, poor fit] | 0.58 µM [rising, partial curve]
20 | COc1cc(/C=N/NC(=O)Cn2ccc(C(F)(F)F)n2)cc(OC)c1OC | 18.6 | 6.51 µM [rising, partial curve] | 0.00517 µM [rising, full curve, poor fit]
21 | Clc1ccc(C(c2nnnn2CCc2ccccc2)N2CCSCC2)cc1 (centres undefined) | 117 | – | 20.6 µM [rising, partial curve]

Row | SMILES | cell number change [%] | AC50 [1] | AC50 [2]
22 | COc1cccc(-c2c(-c3cc(OC)cc(OC)c3)n(C)c3ccc(-c4cnc(OC)nc4)cc23)c1 | -7.44 | 20.6 µM [falling, single point] | –
23 | O=C(Cn1ccnc1)c1ccc(O)c(O)c1 | 11 | 18.4 µM [rising, partial curve] | –
24 | O=C(Cc1ccccc1)Nc1ccc(N2CCN(Cc3ccccc3F)CC2)cc1 | – | 6.51 µM [falling, single point] | –
25 | N/C(=N\OC(=O)c1ccc(Cl)cc1Cl)c1ccc(Cl)cc1 | 1.63 | – | 4.61 µM [rising, single point]
26 | COc1ccc(OC)c(/C=N/NC(=O)c2ccncc2)c1 | 2.55 | 6.51 µM [rising, single point] | –
27 | Cc1nc(NC(=O)c2ccc(Cl)cc2)nc2cc3c(cc12)OCO3 | – | 0.058 µM [rising, full curve] | –
28 | CCn1c(SCC(=O)NC2CCCCC2)nnc1-c1ccccn1 | 25.2 | 1.64 µM [falling, partial curve, poor fit] | –
29 | COc1ccccc1OCCCn1c(=O)oc2ccc(C)cc21 | 51 | 0.58 µM [falling, single point] | 1.46 µM [rising, full curve]
30 | CC(O)C(=O)N/N=C/c1cccc2ccccc12 (centres undefined) | 16.2 | 13 µM [rising, single point] | –
31 | O=C(Nc1ccc(Cl)c(Cl)c1)N1CCSCC1 | -31 | 16.4 µM [falling, single point] | 18.4 µM [falling, single point]
32 | COc1ccccc1CNC(=O)CNC(=O)Cn1cnc2ccccc2c1=O | -11.1 | – | 6.51 µM [falling, single point]
33 | COc1ccc(-c2cnc(SCC(=O)Nc3nc(C(C)(C)C)cs3)n2Cc2ccco2)cc1 | -64.4 | 1.16 µM [falling, full curve] | 1.84 µM [falling, full curve]
34 | CCC(=O)c1ccc(N2CCN(S(=O)(=O)c3ccccc3)CC2)c(F)c1 | – | 0.731 µM [rising, full curve, poor fit] | –
35 | Oc1ccc2ccccc2c1CNc1cnc2ccccc2c1 | -46 | – | 16.4 µM [falling, single point]
36 | CCOC(=O)c1c(C)[nH]c(=S)c(C#N)c1-c1ccccc1 | 23.5 | 20.6 µM [falling, single point] | –
37 | CC1CCCCC1NC(=O)CN(C)S(=O)(=O)c1ccc2c(c1)CCC(=O)N2 (centres undefined) | -7.41 | – | –
38 | Cc1cc(=O)c(C(=O)Nc2cccc(C(=O)NC3CC3)c2)nn1-c1ccccc1Cl | 13.7 | 14.6 µM [rising, partial curve] | –
39 | CCOc1cc(C2CC(=O)Nc3cc(C)c(C)cc32)ccc1O (centres undefined) | -4.47 | 0.58 µM [rising, full curve, poor fit] | –
40 | Cc1ccc(CNc2nc(C)cs2)cc1 | 4.7 | – | –
41 | COc1ccc(-c2onc(C)c2C)cc1S(=O)(=O)NCCc1ccco1 | -4.25 | – | –
42 | CC1CCCC(C)N1S(=O)(=O)c1ccc(NC(=O)CNCC2CCCO2)cc1 (centres undefined) | -4.44 | – | –

Ordered by count of non-hydrogen atoms (smallest number first): 3 of the compounds above.
Row | SMILES | cell number change [%] | AC50 [1] | AC50 [2]
40 | Cc1ccc(CNc2nc(C)cs2)cc1 | 4.7 | – | –
36 | CCOC(=O)c1c(C)[nH]c(=S)c(C#N)c1-c1ccccc1 | 23.5 | 20.6 µM [falling, single point] | –
22 | COc1cccc(-c2c(-c3cc(OC)cc(OC)c3)n(C)c3ccc(-c4cnc(OC)nc4)cc23)c1 | -7.44 | 20.6 µM [falling, single point] | –

Next part

Row | SMILES | cell number change [%] | AC50 [1] | AC50 [2]
43 | Cc1ccsc1/C=N/NC(=O)c1ccco1 | 2.35 | – | –
44 | Cc1cc(C(=O)Cn2nc(C(=O)O)c3ccccc3c2=O)c(C)n1-c1ccc(OC(F)F)cc1 | – | – | 0.00517 µM [rising, full curve, poor fit]
45 | COc1ccccc1OCCCCCNCCO | 0.631 | – | –
46 | CC(C)n1c(-c2ccccc2)nc(=S)c2c1CCCC2 | -20.1 | 0.0731 µM [falling, full curve, poor fit] | –
47 | COc1ccc(CN(CCN)C2CC(C)N(C)CC2C)cc1 (centres undefined) | 11 | 20.6 µM [rising, single point] | 0.0731 µM [rising, full curve, poor fit]
48 | COC(=O)c1cccc(NC(=S)NCc2ccc(F)cc2)c1 | 35.5 | – | 6.51 µM [rising, single point]
49 | COc1ccc(-n2c(C)nc3c(cnn3-c3ccc(C)cc3)c2=O)cc1 | 12.3 | 0.259 µM [rising, partial curve, poor fit] | –
50 | O=C(CN1CCCCC1)N1CCN(C(=O)CN2CCCCC2)CC1 | 6.07 | – | –
51 | O=C(OCCN1CCCCC1)c1cccc(Cl)c1 | -8.14 | 0.0291 µM [falling, full curve, poor fit] | –
52 | CSc1ccc(C2C(C#N)=C(N)Oc3cc4c(cc32)OCO4)cc1 (centres undefined) | 97 | 2.59 µM [rising, partial curve] | 25.9 µM [rising, partial curve, poor fit]
53 | Cc1cc(C)n(/N=C/c2c[nH]c3ccccc23)c(=O)c1C#N | 66.1 | 6.51 µM [rising, single point] | 3.66 µM [rising, full curve]
54 | CCN(CC)C(NC(=O)c1ccccc1)C(=O)c1ccccc1 (centres undefined) | 8.81 | – | –
55 | COc1ccc(Cn2ccnc2SCC(=O)Nc2ccccc2F)cc1 | 24.3 | – | –
56 | NS(=O)(=O)c1ccc(CCNC(=O)CN2CCN(Cc3cccc(C(F)(F)F)c3)CC2)cc1 | 12.2 | 29.1 µM [falling, single point] | –
57 | Cc1ccc(-c2noc(C3CCCN(C(=O)c4ccc(C(C)(C)C)cc4)C3)n2)o1 (centres undefined) | -1.28 | 5.17 µM [falling, partial curve] | –
58 | CCOC(=O)c1c(NC(=O)Cn2nc(C(=O)O)c3ccccc3c2=O)sc(C)c1C | 33 | 6.51 µM [rising, partial curve] | 14.6 µM [rising, partial curve, poor fit]
59 | CCn1c(CNc2ccccc2Cl)nnc1SCC(=O)NCc1ccccc1 | -76.1 | 4.11 µM [falling, partial curve] | 25.9 µM [falling, partial curve]
60 | FC(F)(F)c1cccc(CN2CCC(c3cc(-c4cccs4)n[nH]3)CC2)c1 | -57.2 | 20.6 µM [falling, single point] | 20.6 µM [falling, single point]
61 | O=C(c1cccc([N+](=O)[O-])c1)N1CCN(S(=O)(=O)/C=C/c2ccccc2)CC1 | 26.8 | 0.00517 µM [rising, full curve, poor fit] | 0.00461 µM [rising, full curve, poor fit]
